{"sequences": {"note": "Sequences of proteins named here, by UniProt entry; tags and fusion partners are left off.", "UniProt Q14258": "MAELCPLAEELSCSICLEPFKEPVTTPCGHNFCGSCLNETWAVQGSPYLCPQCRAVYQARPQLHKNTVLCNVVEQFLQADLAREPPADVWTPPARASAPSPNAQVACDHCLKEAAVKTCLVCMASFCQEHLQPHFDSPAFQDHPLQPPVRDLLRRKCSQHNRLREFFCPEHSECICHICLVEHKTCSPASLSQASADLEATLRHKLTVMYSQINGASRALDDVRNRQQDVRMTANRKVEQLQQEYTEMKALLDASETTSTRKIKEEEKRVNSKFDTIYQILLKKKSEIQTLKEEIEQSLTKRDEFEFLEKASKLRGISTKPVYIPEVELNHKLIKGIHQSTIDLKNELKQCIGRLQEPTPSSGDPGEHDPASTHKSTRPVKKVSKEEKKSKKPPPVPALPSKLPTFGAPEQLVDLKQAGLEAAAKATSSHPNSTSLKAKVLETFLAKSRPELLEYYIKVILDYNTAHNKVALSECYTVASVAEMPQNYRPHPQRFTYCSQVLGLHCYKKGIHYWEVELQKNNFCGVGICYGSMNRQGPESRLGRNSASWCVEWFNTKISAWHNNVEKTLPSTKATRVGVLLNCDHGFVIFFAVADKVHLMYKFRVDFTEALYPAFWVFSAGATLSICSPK"}, "source": "paper PMC12343871", "target": "T1, Hexokinase 2 (HK2) (human (endogenous in gastric cancer cells)) (UniProt P52789)", "T1 sequence": "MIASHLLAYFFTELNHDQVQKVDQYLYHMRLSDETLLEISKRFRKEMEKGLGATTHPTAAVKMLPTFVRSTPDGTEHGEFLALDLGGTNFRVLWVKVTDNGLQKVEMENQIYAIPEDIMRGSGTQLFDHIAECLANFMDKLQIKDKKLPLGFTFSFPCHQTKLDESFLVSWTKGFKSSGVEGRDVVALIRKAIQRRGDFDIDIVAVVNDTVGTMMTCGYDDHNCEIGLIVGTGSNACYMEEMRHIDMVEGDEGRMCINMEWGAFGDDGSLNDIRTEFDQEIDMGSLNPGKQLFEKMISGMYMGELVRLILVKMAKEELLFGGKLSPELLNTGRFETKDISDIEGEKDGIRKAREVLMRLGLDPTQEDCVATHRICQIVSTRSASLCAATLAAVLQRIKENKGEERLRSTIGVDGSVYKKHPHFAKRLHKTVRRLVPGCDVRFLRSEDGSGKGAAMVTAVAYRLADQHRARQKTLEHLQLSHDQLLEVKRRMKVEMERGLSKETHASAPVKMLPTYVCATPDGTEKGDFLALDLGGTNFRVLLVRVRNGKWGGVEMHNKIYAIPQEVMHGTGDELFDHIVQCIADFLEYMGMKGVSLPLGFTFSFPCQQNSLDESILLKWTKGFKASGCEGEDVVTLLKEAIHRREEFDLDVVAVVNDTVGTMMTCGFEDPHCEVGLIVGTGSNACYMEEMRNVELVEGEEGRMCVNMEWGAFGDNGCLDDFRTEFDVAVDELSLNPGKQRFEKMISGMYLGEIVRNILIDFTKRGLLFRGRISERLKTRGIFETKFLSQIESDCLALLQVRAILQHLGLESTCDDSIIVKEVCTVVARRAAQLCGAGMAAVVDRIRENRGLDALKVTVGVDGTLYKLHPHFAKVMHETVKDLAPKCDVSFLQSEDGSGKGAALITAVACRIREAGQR", "experiment": "affinity purification with mass spectrometry; IP-MS screening for proteins interacting with HK2; sample and conditions not told", "note": "Results are given in words; binding and its absence hold for the method and conditions named. In cells and extracts the contact can be indirect. A yes stands for co-enrichment or nearness to the bait. Other partners may have been found.", "data": [{"substance": "Tripartite motif 25 (TRIM25) (from UniProt Q14258 1-630)", "values": [{"measurement": "binding", "result": "binds"}]}]}
